This assay concerns the target TATA-box binding protein (endogenous, SH-SY5Y cells) (human (endogenous in SH-SY5Y)) (UniProt P20226). Briefly: proximity ligation; in situ PLA (Duolink) on fixed SH-SY5Y cells, endogenous proteins, nuclear puncta counted; cells untreated or treated with EGCG (25-100 uM) for 24 h.

The chains behind the UniProt entries cited, without tags or fusion partners. Where a name states a change or a piece, a line headed by the entry shows the natural chain unless it says otherwise.
UniProt P20226: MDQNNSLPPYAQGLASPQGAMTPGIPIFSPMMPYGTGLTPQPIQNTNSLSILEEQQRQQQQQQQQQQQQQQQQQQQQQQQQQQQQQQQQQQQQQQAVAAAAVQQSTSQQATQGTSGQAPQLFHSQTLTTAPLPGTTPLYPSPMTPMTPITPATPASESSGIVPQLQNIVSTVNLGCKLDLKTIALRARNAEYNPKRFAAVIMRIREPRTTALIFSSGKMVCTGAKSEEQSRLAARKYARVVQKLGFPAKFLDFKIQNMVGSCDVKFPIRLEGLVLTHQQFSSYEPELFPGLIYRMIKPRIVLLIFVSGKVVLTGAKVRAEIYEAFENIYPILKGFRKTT
UniProt P01106: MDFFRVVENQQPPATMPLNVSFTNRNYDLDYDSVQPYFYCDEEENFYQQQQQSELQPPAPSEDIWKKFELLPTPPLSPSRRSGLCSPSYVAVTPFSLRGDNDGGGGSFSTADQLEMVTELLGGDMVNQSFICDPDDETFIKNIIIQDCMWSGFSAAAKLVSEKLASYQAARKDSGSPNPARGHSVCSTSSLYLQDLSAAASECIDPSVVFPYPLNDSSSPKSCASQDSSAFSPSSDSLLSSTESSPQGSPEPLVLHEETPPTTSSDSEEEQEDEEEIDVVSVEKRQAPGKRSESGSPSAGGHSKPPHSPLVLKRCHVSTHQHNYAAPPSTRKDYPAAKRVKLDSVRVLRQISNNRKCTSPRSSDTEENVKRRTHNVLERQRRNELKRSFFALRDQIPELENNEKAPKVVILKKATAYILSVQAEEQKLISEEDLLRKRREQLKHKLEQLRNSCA

No constants are given. Whether binding was seen depends on the method and setting. In cells and extracts the contact can be indirect. A result given as binding can be weak or reduced; the word gives no strength.

Regarding “c-MYC (endogenous, SH-SY5Y cells) (from UniProt P01106)”, the binding entry is “binds”.
